## Results of single-concentration screens

By UniProt entry, the sequences of proteins in these tests, tags left out.
UniProt P9WFT3, whole entry: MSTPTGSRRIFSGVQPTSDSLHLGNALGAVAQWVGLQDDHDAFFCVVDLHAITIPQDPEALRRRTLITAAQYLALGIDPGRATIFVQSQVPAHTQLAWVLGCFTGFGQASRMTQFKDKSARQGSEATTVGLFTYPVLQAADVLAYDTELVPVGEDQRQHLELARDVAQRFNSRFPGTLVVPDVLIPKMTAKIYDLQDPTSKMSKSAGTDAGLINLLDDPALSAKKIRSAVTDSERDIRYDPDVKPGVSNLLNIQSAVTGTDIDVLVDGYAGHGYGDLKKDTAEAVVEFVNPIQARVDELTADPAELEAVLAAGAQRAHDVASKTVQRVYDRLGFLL

Data taken from ChEMBL document CHEMBL3988442, “University of Dundee, Small-Polar-MMV Screening Library” (2021).

Each number is a percent effect as filed.
The controls that fix the scale are not given in the record; negative values are as filed.
The compounds are a random part of those screened.

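Tryptophan-tRNA ligase, Mycobacterium tuberculosis (UniProt P9WFT3). Enzyme assay of tryptophanyl-tRNA synthetase; the read-out is not stated. Tested at 10 µM. Direction is not recorded; retested compounds ran higher, which suggests that high means inhibition. About 65,000 compounds were tested under these conditions; 0.098% (about 64) showed 50% or more at least once.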

| Compound | effect |
|---|---|
| `Cc1nnc(Cn2cc(I)cc(C)c2=O)o1` | -1.122 |
| `CCN(Cc1cscn1)CC1(C)Cc2c(N)nc(N)nc2O1` (stereo not given) | 0.6911 |
| `CC(C)N(C)CCCNC(=O)c1cnn(C(C)(C)C)c1C(F)(F)F` | 3.398 |
| `O=C(N1CCCC1)N1CCC(c2nccn2Cc2cscn2)CC1` | -0.3623 |
| `CNC(=O)C1(Cc2cc(C(C)C)no2)CCN(Cc2cccnc2)C1` (stereo not given) | -13.06 |
| `CC(C)CSCCCNC(=O)C1CCOC1` (stereo not given) | -1.412 |
| `O=C(c1cc(C2CC2)n[nH]1)N1C[C@H]2CC[C@](O)(c3ccccc3F)[C@H]2C1` | -0.9791 |
| `C/C=C(\C)CN(CCN1CCOCC1)Cc1ccco1` | -1.723 |
| `CNC(=O)CCN1CCCCCC1c1ccc(C)o1` (stereo not given) | 0.4515 |
| `CN(C)Cc1ccc(C2CCCCN2C(=O)c2ncccc2O)cc1` (stereo not given) | -2.916 |
| `CCn1nc(C)cc1C(=O)N1CCOc2ccc(OC)cc21` | -0.7802 |
| `Cc1noc([C@H]2C[C@H]3OCC[C@H]3N(Cc3ccc(F)cc3)C2)n1` | -6.173 |
| `Cc1cc(C)c2nc(CN(C)C(C)c3ccncn3)cc(O)c2c1` (stereo not given) | -4.025 |
| `O=C(Nc1ccn(Cc2cccc3cccnc23)n1)C1COCCO1` (stereo not given) | -5.877 |
| `c1cc(CN2Cc3nnn(CC4CC4)c3C(COCC3CC3)C2)co1` (stereo not given) | -1.63 |
| `Cc1ccnc(OC[C@]23COC[C@H]2CN(C(=O)C2=CCCCC2)C3)n1` | -4.809 |
| `CC(=O)N1CCS(=O)(=O)[C@@H]2CCN(S(=O)(=O)CC(C)C)CC[C@@H]21` | -5.285 |
| `Fc1cnccc1CN1CCC2(CCN2c2ncccn2)C1` (stereo not given) | -1.444 |
| `Cc1cc(C)n(CC2CCCN2C(=O)c2cnn(C)c2C2CC2)n1` (stereo not given) | -1.652 |
| `CNS(=O)(=O)c1cccc(CNC(=O)CCc2ccsc2)c1` | -3.177 |
| `O=C(c1ccc(OCC2CC2)nc1)N1CCCC(n2cccn2)C1` (stereo not given) | -1.471 |
| `O=C(COc1cccc(Br)c1)N1CCOCC1c1ncon1` (stereo not given) | -4.773 |
| `CCc1nccn1C1CCCN(C(=O)c2ccc(N(C)C)nn2)C1` (stereo not given) | -0.1649 |
| `CC(C)CN1CCN(C(=O)c2ccn(C)c(=O)c2)CC1` | -1.15 |
| `CCS(=O)(=O)NC[C@]12COC[C@H]1CN(Cc1sccc1C)C2` | -8.148 |
| `CC(C)(C)CC(=O)NCC(=O)Nc1ccn(Cc2ccccc2)n1` | -0.2712 |
| `O=C(Cc1cccnc1)N1CCC2(CC1)CCN(C1CCOC1)C2` (stereo not given) | 7.791 |
| `N#Cc1ccc(N2CCC(c3nccn3Cc3cscn3)CC2)nc1` | 8.488 |
| `c1c[nH]c2nc(C3CCCNC3)nc-2c1` (stereo not given) | 0.08643 |
| `O=C(c1cccc(NCCO)c1)N1CCOCC1` | -2.9 |
| `Cn1c(N2CCOCC2)nc2cc(C(=O)NCC(F)(F)F)ccc21` | 5.092 |
| `Cc1cc(CN2CCN(CC(O)c3ccccc3)CC2)no1` (stereo not given) | -3.698 |
| `Cc1cc(NC(=O)CNc2ccc(Br)cc2F)on1` | -2.004 |
| `Cc1ccc(CN2CCC3(CC2)CCN(C(=O)c2cccn2C)C3)cc1` | -0.5814 |
| `NC(=O)COCCNC(=O)Nc1sc2ccccc2c1Cl` | -0.5202 |
| `CCn1cc(-c2c(C)c(C3CCOC(C)(C)C3)nc(N)c2C#N)cn1` (stereo not given) | 4.129 |
| `COc1ccccc1OCCNc1snc(Cl)c1C#N` | -5.083 |
| `COCCN1CCC2(C1)c1ccccc1S(=O)(=O)N2Cc1ccccc1` (stereo not given) | -3.294 |
| `Cn1nccc1-c1ncc2c(c1C(=O)O)CCN(Cc1cccnc1)C2` | 2.186 |
| `O=C(c1cccs1)N1C[C@@H]2OCCN(CC3CCCO3)[C@@H]2C1` (stereo not given in full) | -3.604 |
| `Cc1cc(C)n(Cc2cc(C(=O)N3CCCCC3c3nccs3)n[nH]2)n1` (stereo not given) | 3.215 |
| `COCCN1C[C@H]2CN(C(=O)C3CC3)CCN2C1=O` | -1.883 |
| `Cc1cc(CN(Cc2cccnc2)CC2CCCO2)on1` (stereo not given) | 7.342 |
| `Cc1cc2ccccc2n1CCC(=O)N1CCC2(CC1)CNC(=O)C2` | -3.453 |
| `N#Cc1ccccc1N1CCCN(CC(=O)Nc2ccccc2Cl)CC1` | -3.578 |
| `O=C(c1ccco1)N1C[C@H]2CCCN(CC3CCOCC3)[C@H]2C1` | 2.205 |
| `CCCn1nnnc1CSc1nccn1Cc1ccccn1` | 2.397 |
| `CCN1C(=O)[C@]2(CC[C@@H]3CN(S(=O)(=O)CC(C)C)C[C@@H]32)N=C1C` | -7.325 |
| `CC(NCc1cnc(N2CCOCC2)nc1)c1ccc(Cl)s1` (stereo not given) | 2.721 |
| `Cc1cnn(CCNCc2cc(=O)n3cc(Cl)ccc3n2)c1` | -3.981 |
| `Cc1noc(C)c1C(C)NC(=O)N1CCC(NC(=O)c2ccsc2)CC1` (stereo not given) | 15.44 |
| `Cc1ccc(-c2nc(CN3CCOC(Cn4cccn4)C3)cs2)o1` (stereo not given) | -1.625 |
| `CCCc1nnsc1C(=O)N1CCN(CC(C)O)CC1` (stereo not given) | -2.204 |
| `N#Cc1cnc2c(F)cc(F)cc2c1NC1CCN(CC(N)=O)CC1` | -0.8972 |
| `CO[C@H]1COCCN(C(=O)c2ccc(C(F)(F)F)cc2)C1` | -1.907 |
| `CC(C)c1ccnc(N[C@H]2COC[C@@H]2N2CCCC2)n1` | 0.7236 |
| `O=C(NCCn1ccnc1-c1cc2n(n1)CCCNC2)c1ccncc1` | 4.575 |
| `O=C1N(Cc2ccc(F)cc2)CCCC12CCN(C1CCSCC1)C2` (stereo not given) | -2.729 |
| `CSCC(C)(O)CNC(=O)c1ccc(F)cc1Cl` (stereo not given) | -0.831 |
| `O=C(CCc1cccs1)N1CCC(N2CCNC2=O)CC1` | -1.798 |
| `COCCN1CCN(Cc2coc(-c3ccccc3Cl)n2)CC1` | -3.701 |
| `CCc1nc2c(N3CCC4(CC3)CC(=O)N(CC(C)C)C4)ncnc2o1` | -4.459 |
| `CCn1c(C2CCCN(S(=O)(=O)C3CC3)C2)nn(CCN(C)C)c1=O` (stereo not given) | 1.522 |
| `Fc1cccc(Cl)c1CN1CCn2c(nnc2C2CC2)C1` | 6.622 |
| `Cc1nnsc1CNC(=O)Nc1cccc(N2CCN(C)C2=O)c1` | 0.4112 |
| `Cc1ccc(C(C)NCc2c(C(C)C)nn(C)c2N2CCOCC2)o1` (stereo not given) | -4.537 |
| `O=S(=O)(NCCNc1ccc(-n2cccn2)nn1)c1ccccc1` | -3.633 |
| `COCCN(C/C=C/c1ccccc1)Cc1nccs1` | 2.183 |
| `CCc1cnc(CN(C)C2CCN(CC3CCOCC3)C2)o1` (stereo not given) | 5.591 |
| `CN1CCN(S(=O)(=O)NCC2COc3ccccc3C2)CC1` (stereo not given) | 2.26 |
| `Cc1ccsc1C(=O)N1C[C@@H](C(=O)O)[C@H](C(C)C)C1` | -0.000007 |
| `COCCCNC(=O)CN(C)C(C)c1nc(C)no1` (stereo not given) | 4.552 |
| `COc1cc(CNCc2ccc(-n3nc(C)cc3C)nc2)cc(OC)c1` | -0.6905 |
| `COc1cc2c(nn1)CCN(Cc1nnc(Cc3ccccc3)o1)C2` | -3.25 |
| `CC[C@H]1CN(S(=O)(=O)c2ccccc2)CC[C@H]1CC(=O)O` | 2.033 |
| `O=C(NCc1ccco1)[C@@H]1CCO[C@@H]2CCN(c3ccncn3)C[C@H]21` | 3.882 |
| `Cc1cncc(CN2CC[C@@](O)(CNC(=O)c3c[nH]cn3)[C@H](O)C2)c1` | -8.171 |
| `CCOc1cccc(CCNC(=O)Cc2cccc(O)c2)n1` | -0.301 |
| `CCc1ncncc1C(=O)NCCN1CCC(C)CC1` | -6.445 |
| `OCc1cc2ccccc2nc1N1CCCCC1` | 0.311 |
| `CC(C)n1cnc(-c2nc(C(=O)N3CCN(C)CC3)c3ccccn23)c1` | 3.417 |
| `CC(C)n1ccnc1C1CCCN(Cc2ccc(F)c(F)c2)C1` (stereo not given) | -5.617 |
| `CCc1nnc2n1CCN(C(=O)c1nc(-c3ccco3)sc1C)C2` | -2.98 |
| `O=S(=O)(NCC1(c2cccs2)CCOCC1)c1ccc2c(c1)OCCO2` | 4.379 |
| `COc1cc(NC(=O)N2CCCC2c2nncn2C)ccc1Br` (stereo not given) | -4.311 |
| `O=C(Nc1ccc2c(c1)C(=O)NC2=O)c1ccc(Cl)s1` | -2.413 |
| `Cc1ccc(S(=O)(=O)n2ccc(C(=O)NCC(F)(F)F)c2)cc1` | -1.192 |
| `COCCC(=O)Nc1ccnn1-c1ccccc1` | -3.286 |
| `CCOCCn1nc(C)cc1C(=O)N1CC[C@](C)(O)[C@H](C)C1` | 1.316 |
| `CCNc1cc2c(nn1)CCN(C(=O)C1Cc3ccccc3S1)C2` (stereo not given) | 2.658 |